According to patent publication US20180064666A1:
These are yes or no findings as the source states them, for the method shown. For some of these results: In cells and extracts the contact can be indirect. Some entries that bind do so weakly or less than the wild type.

Chains of the proteins cited; added tags and fusions are not shown. Lines headed by an entry give the natural chain unless they say otherwise; changes in a name come on top. Residues count along the entry.
UniProt P27361: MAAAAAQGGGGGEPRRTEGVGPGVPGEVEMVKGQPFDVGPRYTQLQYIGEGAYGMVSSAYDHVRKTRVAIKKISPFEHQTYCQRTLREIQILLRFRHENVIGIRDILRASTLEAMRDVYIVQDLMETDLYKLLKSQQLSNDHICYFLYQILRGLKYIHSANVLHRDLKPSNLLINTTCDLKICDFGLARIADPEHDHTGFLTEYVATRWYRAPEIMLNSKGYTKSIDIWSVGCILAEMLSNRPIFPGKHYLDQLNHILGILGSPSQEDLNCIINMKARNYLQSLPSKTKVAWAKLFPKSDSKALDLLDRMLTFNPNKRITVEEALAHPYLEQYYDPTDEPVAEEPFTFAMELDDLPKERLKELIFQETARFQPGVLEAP
Erk1 (endogenous, member of Erk1/2) (human (endogenous in human cell lines)): residues 2-379 of P27361
UniProt P28482: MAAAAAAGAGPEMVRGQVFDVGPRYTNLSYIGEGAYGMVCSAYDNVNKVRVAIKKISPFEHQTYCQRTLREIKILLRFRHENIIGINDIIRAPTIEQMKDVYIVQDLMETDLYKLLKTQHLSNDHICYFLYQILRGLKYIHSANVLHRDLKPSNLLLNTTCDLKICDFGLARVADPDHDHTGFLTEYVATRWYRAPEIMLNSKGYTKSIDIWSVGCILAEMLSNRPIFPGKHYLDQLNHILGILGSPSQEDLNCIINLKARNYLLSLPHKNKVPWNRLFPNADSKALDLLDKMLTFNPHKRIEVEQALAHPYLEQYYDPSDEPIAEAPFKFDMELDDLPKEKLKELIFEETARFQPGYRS
Erk2 (endogenous, member of Erk1/2) (human (endogenous in human cell lines)): residues 2-360 of P28482
UniProt P61019: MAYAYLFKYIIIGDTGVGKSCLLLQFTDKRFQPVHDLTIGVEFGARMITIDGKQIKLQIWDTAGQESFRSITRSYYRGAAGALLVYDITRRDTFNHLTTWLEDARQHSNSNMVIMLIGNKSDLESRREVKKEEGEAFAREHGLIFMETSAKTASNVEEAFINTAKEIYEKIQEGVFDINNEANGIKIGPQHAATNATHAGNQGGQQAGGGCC

How the values were obtained:
[1] = target: Erk1 (endogenous, member of Erk1/2) (human (endogenous in human cell lines)) (UniProt P27361); assay: GST pull-down (FIG. 45F)
[2] = target: Erk2 (endogenous, member of Erk1/2) (human (endogenous in human cell lines)) (UniProt P28482); assay: GST pull-down (FIG. 45F)
recombinant Erk1 = recombinant Erk1 (UniProt P27361); assay: in vitro binding of recombinant proteins to GST-Rab2A (FIG. 47A)
recombinant Erk2 = recombinant Erk2 (UniProt P28482); assay: as above

Measured: binding

GST-Rab2A fusion protein (wild-type) (from UniProt P61019 1-212) (enzyme)
binds: [1] | [2] | recombinant Erk1 | recombinant Erk2
